Results taken from article PMC7293033.
Results are given in words; binding and its absence hold for the method and conditions named. In cells and extracts the contact can be indirect. These calls come from enrichment with a bait or labelling near it, and not all partners need be listed. A no says only that the protein was not detected with the bait.

Chains of the proteins cited; added tags and fusions are not shown. Lines headed by an entry give the natural chain unless they say otherwise; changes in a name come on top.
UniProt Q9BZZ5: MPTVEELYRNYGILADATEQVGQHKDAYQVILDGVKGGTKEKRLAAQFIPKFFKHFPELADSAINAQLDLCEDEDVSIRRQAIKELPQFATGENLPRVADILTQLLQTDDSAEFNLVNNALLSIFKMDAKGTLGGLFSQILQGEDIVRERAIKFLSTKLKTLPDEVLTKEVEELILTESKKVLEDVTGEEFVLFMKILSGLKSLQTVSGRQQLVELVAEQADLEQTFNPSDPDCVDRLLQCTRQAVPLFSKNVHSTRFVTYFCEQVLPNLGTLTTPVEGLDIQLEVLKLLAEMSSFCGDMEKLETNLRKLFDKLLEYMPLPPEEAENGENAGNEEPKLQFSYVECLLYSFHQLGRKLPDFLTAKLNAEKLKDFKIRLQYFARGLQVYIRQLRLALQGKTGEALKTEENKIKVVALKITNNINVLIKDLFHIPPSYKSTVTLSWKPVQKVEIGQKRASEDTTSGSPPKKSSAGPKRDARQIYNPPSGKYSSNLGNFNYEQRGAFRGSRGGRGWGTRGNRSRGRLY
UniProt O75152: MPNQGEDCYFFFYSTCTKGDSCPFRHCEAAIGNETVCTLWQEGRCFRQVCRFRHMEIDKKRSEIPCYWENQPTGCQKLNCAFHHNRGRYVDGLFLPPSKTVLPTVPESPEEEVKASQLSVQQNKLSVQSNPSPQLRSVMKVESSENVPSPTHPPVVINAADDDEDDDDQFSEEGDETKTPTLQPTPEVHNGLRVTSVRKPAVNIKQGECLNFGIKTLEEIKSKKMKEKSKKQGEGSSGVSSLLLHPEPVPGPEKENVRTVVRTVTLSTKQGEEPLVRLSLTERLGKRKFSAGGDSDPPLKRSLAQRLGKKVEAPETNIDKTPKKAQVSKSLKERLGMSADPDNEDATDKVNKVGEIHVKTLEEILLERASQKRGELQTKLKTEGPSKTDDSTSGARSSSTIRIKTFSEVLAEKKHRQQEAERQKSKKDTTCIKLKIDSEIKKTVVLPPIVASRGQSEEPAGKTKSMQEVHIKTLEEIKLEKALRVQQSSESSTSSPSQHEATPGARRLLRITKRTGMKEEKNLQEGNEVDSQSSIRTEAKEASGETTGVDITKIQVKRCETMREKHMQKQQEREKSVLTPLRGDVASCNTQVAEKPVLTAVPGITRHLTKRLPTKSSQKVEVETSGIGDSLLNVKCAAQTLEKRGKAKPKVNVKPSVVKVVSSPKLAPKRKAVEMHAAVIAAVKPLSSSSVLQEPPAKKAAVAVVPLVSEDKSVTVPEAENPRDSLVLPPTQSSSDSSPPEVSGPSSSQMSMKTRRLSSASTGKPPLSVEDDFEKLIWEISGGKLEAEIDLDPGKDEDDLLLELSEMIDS
UniProt O00571: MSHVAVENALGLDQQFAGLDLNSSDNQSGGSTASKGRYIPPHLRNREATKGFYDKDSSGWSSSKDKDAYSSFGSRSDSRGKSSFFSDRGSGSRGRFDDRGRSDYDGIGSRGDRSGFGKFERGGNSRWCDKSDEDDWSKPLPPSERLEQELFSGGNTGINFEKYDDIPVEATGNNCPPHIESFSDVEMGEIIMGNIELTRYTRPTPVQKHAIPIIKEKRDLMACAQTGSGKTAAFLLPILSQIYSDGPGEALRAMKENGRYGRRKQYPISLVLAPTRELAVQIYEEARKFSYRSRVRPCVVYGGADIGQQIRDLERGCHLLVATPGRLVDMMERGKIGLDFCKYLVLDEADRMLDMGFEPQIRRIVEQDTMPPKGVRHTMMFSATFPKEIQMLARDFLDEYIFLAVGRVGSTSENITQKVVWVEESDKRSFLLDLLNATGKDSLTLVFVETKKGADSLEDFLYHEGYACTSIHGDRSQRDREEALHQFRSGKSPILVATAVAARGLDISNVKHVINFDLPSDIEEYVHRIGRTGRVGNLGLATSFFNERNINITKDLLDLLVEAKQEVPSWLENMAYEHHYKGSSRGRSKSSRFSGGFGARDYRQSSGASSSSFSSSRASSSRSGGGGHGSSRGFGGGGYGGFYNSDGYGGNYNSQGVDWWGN
UniProt P06730: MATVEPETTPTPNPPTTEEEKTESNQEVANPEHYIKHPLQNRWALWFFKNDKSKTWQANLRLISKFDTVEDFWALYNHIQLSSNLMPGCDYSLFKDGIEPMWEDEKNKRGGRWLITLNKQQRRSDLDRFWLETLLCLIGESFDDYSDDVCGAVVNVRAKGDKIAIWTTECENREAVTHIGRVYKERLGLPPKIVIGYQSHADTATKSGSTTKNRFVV
UniProt Q13838: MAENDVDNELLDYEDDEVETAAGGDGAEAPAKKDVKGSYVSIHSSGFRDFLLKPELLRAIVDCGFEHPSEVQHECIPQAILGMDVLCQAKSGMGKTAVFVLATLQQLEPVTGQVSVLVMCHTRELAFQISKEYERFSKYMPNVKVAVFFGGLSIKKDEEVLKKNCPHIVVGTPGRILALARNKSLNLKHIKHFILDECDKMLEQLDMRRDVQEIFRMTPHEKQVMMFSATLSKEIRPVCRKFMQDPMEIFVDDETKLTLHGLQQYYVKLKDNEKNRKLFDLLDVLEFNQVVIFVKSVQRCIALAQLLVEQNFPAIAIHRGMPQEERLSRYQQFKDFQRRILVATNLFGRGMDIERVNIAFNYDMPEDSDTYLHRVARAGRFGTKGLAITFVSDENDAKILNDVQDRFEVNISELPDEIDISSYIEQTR
UniProt P09038: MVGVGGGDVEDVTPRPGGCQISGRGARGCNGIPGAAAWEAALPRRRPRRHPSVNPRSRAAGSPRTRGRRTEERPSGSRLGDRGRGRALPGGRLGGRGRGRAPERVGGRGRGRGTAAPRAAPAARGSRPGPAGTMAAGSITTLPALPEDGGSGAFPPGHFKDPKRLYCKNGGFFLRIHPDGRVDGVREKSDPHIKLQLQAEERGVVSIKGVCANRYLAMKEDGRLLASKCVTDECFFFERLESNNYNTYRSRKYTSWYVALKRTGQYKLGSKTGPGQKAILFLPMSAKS

Legend:
[1] = target: FLAG-tagged API5 WT (human) (UniProt Q9BZZ5); test: affinity purification with mass spectrometry; immunoprecipitation of FLAG-tagged API5 WT or 4Mut reconstituted in API5 knockout cells, proteomics analysis; mock as control
[2] = target: FLAG-tagged API5 4Mut (D145A/E184A/D185A/E190A) (human) (UniProt Q9BZZ5); test: as above

Substance | binding [1] | binding [2]
ZC3H11A (from UniProt O75152 1-810) | binds | no binding
DDX3X (from UniProt O00571 1-662) | no binding | 
eIF4E (from UniProt P06730 1-217) | binds | no binding
UAP56 (DDX39B), endogenous (from UniProt Q13838 1-428) | binds | binds
FGF2 (endogenous) (from UniProt P09038) | binds | no binding
